Measured values taken from patent publication US11975015B2, “Methods for treating degenerative disc disease and chronic lower back pain” (ECM Biologics, Inc., priority 2017, dated 2024).
At least one compound was matched to its structure with a doubt left.

Tested on: P. acnes-infected NP cells
Assay: Clindamycin suppression of pro-inflammatory cytokine expression in P. acnes-infected NP cell cultures
Type: cell-based
Conditions: 0.25 μg/mL clindamycin; human NP cells infected with P. acnes type II, MOI 1000; after 24 hours and 48 hours; vs untreated infected plates

CCC[C@@H]1C[C@@H](C(=O)N[C@@H]([C@H]2O[C@H](SC)[C@H](O)[C@@H](O)[C@H]2O)[C@H](C)Cl)N(C)C1 [clindamycin]
Significantly lower expression levels: expression levels of IL-1β | expression levels of IL-6 | expression levels of IL-8
